# PubChem BioAssay (EPA / NIEHS)
# Sequences of proteins named here, by UniProt entry; tags and fusion partners are left off. A change or cut given only in a name is not applied to a line headed by its entry.
# UniProt P42336, whole entry, looked up: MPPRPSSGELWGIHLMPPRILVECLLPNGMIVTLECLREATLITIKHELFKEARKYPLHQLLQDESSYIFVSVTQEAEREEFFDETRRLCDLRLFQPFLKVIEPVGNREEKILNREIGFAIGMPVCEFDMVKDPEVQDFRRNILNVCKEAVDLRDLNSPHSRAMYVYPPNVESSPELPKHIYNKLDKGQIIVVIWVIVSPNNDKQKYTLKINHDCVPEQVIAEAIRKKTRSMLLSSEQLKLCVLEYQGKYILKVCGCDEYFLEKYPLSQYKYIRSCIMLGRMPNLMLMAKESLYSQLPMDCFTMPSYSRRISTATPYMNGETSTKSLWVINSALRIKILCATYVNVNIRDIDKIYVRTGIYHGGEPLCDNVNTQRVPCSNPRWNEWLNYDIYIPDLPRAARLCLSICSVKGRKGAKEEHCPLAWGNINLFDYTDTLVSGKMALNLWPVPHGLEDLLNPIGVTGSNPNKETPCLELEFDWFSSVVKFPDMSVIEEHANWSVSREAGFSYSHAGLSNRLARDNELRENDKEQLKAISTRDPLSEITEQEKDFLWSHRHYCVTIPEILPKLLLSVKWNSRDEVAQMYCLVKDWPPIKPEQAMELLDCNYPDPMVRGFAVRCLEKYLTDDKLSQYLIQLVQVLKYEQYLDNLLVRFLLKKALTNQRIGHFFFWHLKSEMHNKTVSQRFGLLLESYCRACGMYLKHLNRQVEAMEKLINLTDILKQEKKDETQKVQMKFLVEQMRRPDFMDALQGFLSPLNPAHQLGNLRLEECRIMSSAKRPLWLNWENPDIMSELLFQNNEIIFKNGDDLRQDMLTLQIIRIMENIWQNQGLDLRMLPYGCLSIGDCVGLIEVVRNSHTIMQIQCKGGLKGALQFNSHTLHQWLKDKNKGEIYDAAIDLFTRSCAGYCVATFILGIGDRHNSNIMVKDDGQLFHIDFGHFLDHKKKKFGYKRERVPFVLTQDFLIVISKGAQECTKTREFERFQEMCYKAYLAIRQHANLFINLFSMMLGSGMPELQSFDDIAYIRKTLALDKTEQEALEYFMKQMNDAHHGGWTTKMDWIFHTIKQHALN
# UniProt P35813: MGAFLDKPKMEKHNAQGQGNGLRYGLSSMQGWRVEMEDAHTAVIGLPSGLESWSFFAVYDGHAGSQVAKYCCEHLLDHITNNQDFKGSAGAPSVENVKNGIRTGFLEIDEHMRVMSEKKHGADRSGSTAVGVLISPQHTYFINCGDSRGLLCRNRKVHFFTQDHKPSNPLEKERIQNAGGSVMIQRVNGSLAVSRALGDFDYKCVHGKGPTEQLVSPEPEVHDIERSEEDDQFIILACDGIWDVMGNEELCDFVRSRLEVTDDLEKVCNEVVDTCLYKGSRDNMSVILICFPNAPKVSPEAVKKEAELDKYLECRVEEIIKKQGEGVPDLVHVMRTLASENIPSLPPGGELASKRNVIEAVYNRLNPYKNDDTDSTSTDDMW
# UniProt P62136, whole entry, looked up: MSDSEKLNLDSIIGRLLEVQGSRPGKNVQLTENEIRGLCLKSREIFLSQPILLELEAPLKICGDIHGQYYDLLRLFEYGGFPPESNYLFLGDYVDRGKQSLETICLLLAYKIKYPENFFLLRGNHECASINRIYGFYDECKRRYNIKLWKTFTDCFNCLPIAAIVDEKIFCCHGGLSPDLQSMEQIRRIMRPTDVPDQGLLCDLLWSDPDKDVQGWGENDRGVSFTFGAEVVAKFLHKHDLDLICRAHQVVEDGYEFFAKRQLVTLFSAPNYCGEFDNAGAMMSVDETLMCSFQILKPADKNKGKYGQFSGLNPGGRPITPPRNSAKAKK
# UniProt Q05209: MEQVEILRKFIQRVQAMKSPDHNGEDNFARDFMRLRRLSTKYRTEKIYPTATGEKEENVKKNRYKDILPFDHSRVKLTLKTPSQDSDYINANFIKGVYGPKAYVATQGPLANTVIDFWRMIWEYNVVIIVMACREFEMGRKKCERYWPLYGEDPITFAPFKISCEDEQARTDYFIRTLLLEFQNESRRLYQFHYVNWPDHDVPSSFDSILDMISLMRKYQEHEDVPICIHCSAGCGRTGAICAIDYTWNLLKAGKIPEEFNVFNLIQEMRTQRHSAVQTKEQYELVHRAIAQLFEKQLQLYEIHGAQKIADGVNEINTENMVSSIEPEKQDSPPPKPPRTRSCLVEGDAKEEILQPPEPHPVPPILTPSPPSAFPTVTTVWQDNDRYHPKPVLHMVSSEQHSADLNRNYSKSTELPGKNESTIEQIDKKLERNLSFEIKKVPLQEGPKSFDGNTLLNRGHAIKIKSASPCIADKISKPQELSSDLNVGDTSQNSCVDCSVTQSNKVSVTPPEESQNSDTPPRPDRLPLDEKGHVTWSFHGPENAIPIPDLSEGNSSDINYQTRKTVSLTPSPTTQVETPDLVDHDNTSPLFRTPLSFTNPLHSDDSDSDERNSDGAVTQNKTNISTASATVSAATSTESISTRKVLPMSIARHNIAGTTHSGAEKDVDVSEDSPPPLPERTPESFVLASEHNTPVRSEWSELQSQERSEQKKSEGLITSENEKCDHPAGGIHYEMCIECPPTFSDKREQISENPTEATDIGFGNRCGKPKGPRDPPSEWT
# UniProt Q15678: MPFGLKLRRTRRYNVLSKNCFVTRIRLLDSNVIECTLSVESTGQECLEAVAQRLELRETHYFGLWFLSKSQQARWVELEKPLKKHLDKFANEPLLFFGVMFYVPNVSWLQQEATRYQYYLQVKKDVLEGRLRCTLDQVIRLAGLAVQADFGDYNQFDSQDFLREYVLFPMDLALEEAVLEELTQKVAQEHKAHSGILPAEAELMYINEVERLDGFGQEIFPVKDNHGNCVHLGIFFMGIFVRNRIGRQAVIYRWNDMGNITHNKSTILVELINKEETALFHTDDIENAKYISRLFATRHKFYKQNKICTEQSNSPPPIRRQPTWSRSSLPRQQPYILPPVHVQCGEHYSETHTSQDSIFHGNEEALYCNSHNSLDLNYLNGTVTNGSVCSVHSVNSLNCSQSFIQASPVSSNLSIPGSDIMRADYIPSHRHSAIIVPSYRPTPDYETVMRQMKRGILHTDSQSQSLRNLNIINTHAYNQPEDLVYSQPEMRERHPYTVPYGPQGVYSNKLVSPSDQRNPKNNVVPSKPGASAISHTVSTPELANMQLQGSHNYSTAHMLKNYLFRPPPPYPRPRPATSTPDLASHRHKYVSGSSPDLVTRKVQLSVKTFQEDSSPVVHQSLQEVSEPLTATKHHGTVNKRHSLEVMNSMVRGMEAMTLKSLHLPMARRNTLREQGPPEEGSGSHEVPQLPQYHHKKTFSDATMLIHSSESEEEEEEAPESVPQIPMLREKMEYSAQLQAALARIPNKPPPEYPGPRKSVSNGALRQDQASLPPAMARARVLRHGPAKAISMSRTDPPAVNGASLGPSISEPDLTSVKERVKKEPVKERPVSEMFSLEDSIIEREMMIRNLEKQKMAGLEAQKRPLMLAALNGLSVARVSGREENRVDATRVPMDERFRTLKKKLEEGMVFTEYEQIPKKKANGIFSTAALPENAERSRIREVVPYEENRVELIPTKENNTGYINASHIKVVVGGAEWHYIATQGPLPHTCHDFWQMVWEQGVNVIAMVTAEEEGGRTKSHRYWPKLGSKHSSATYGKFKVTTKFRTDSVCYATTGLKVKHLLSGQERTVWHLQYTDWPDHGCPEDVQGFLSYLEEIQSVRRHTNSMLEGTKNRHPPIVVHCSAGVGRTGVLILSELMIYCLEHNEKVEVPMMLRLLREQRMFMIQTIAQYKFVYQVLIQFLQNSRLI
# UniProt P29074: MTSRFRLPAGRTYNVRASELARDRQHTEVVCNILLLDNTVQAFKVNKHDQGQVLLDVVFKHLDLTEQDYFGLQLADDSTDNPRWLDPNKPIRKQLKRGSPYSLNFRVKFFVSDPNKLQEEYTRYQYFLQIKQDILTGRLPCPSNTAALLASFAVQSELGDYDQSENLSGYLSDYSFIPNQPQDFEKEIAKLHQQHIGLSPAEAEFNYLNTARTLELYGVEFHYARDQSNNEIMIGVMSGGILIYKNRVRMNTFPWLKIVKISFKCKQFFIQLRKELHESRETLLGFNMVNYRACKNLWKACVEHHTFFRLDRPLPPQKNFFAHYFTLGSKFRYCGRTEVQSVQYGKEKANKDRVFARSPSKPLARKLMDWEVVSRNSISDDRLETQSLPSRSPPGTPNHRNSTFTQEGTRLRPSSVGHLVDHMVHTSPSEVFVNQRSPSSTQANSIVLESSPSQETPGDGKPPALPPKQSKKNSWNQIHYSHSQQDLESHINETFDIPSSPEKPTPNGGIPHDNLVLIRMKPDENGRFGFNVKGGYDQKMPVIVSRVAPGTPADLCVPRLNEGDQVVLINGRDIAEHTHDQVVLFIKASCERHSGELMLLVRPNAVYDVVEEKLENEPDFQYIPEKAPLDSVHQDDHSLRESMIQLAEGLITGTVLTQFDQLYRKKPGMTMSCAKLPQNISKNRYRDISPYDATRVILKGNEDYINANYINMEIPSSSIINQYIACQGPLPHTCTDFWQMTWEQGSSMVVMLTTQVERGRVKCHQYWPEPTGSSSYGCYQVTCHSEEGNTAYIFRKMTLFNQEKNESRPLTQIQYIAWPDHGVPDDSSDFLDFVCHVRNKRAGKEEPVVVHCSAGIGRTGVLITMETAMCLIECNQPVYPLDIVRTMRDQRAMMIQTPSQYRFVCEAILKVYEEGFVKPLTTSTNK
# Inconclusive means that the source gave no clear call. Such entries were picked first, then a sample of the others. For part of these data: Where the call is inconclusive, the potency comes from a doubtful curve fit. Calls of active or inactive are those of the source. How the source made its calls: active means hit-call score of the fitted dose curve at least 0.9, where 1 is the maximum; inconclusive means response in the unintended direction; inactive means score below 0.9.
# Experiments:
# [1] = biological target: human Phosphoinositide 3-kinase alpha (PI3Ka), PIK3CA (gene 5290) (UniProt P42336); test: NVS_ENZ_hPI3Ka: NovaScreen (NVS) Enzymatic Assay for human Phosphoinositide 3-kinase alpha (PI3Ka) (AID 2283196)
# Summary of the method: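 Recombinant human PI3Kα with fluorescent substrate, 1 h, product separated by electrophoretic mobility shift; 25 uM duplicate screen, hits (e.g., 30% inhibition) retested singly up to 50 uM; loss of signal vs DMSO.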
# [2] = biological target: human Protein Phosphatase, Mg2+/Mn2+ Dependent 1A (PPM1A), PPM1A (gene 5494) (UniProt P35813); test: NVS_ENZ_hPPM1A: NovaScreen (NVS) Enzymatic Assay for human Protein Phosphatase, Mg2+/Mn2+ Dependent 1A (PPM1A) (AID 2283198)
# Summary of the method: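 Primary screen in duplicate at 25 uM, with actives then titrated to a maximum of 50 uM. Recombinant PPM1A dephosphorylation of fluorescent substrate measured at 1 h, with substrate and product separated by mobility shift; inhibition fitted against DMSO.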
# [3] = biological target: Serine/threonine-protein phosphatase PP1-alpha catalytic subunit (Homo sapiens) (UniProt P62136); test: NVS_ENZ_hPPP1CA: NovaScreen (NVS) Enzymatic Assay for human Protein Phosphatase 1 Aatalytic subunit Alpha (PPP1CA) (AID 2283200)
# Summary of the method: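 Chemicals were first screened in duplicate at 25 uM, and those passing threshold (e.g. 30% inhibition) were run as concentration series to 50 uM. Cell-free recombinant protein, 1.33 h read, fluorescent substrate/product mobility-shift detection, normalised to DMSO.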
# [4] = biological target: Tyrosine-protein phosphatase non-receptor type 12 (Homo sapiens) (UniProt Q05209); test: NVS_ENZ_hPTPN12: NovaScreen (NVS) Enzymatic Assay for human Protein Tyrosine Phosphatase Non-receptor Type 12 (PTPN12) (AID 2283204)
# Summary of the method: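 Single-concentration duplicates (25 uM) preceded singleton concentration-response up to 50 uM for chemicals passing threshold. Cell-free recombinant PTPN12 activity was read 1.33 h after dosing via fluorescence after mobility-shift separation; loss of signal versus DMSO.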
# [5] = biological target: Tyrosine-protein phosphatase non-receptor type 14 (Homo sapiens) (UniProt Q15678); test: NVS_ENZ_hPTPN14: NovaScreen (NVS) Enzymatic Assay for human Protein Tyrosine Phosphatase Non-receptor Type 14 (PTPN14) (AID 2283206)
# Summary of the method: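 Fluorescent substrate turnover by recombinant human PTPN14 was measured 0.5 h after compound addition, with substrate and product separated by mobility shift. Single-point screening at 25 uM, then concentration-response up to 50 uM for chemicals meeting threshold (e.g., 30% inhibition).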
# [6] = biological target: human Protein Tyrosine Phosphatase Non-receptor Type 4 (PTPN4), PTPN4 (gene 5775) (UniProt P29074); test: NVS_ENZ_hPTPN4: NovaScreen (NVS) Enzymatic Assay for human Protein Tyrosine Phosphatase Non-receptor Type 4 (PTPN4) (AID 2283208)
# Summary of the method: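 Screened in duplicate at 25 uM, with hits then titrated to a top concentration of 50 uM. Recombinant Sf9-derived PTPN4 turnover was read by fluorescence with electrophoretic separation, 1.33 h after compound addition. DMSO served as baseline.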
smiles,measurement,setting,value
CN(C)C(=O)NC1(c2ccccc2)CCN(CCC[C@]2(c3ccc(Cl)c(Cl)c3)CCCN(C(=O)c3ccccc3)C2)CC1,AC50,[1],inconclusive: 10.9 µM
CCCCCCCCCCCCCCCCO,outcome,[2],inactive
CCc1c(C(=O)NN2CCCCC2)nn(-c2ccc(Cl)cc2Cl)c1-c1ccc(Br)cc1,AC50,[3],inconclusive: 25 µM
same,outcome,[4],inactive
CC(C)(c1ccc(O)cc1)c1ccc(O)cc1,AC50,[3],inconclusive: 25.4 µM
O=c1[nH]cnc2c1ncn2[C@H]1CC[C@@H](CO)O1,outcome,[5],inactive
Cc1ccc(N)cc1O,outcome,[5],inactive
c1ccc2ccccc2c1,AC50,[6],inconclusive: 0.087 µM
CCN(CC)CCNc1ccc(CNC=O)c2sc3ccc(OC)cc3c(=O)c12,AC50,[1],inconclusive: 45.7 µM
